# In the supplement of paper PMC10849652:
# By UniProt entry, the sequences of proteins in these tests, tags left out. Where a name states a change or a piece, a line headed by the entry shows the natural chain unless it says otherwise.
# UniProt Q969M1: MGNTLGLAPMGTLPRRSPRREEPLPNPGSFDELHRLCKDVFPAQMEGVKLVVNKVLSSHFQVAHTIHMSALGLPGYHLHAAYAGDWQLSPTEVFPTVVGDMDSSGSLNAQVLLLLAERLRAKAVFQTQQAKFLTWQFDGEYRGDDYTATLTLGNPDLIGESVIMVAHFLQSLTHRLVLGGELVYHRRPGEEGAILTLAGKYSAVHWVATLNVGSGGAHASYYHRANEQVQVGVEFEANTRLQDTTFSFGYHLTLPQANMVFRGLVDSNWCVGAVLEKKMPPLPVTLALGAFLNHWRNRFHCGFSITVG
# UniProt Q9H497: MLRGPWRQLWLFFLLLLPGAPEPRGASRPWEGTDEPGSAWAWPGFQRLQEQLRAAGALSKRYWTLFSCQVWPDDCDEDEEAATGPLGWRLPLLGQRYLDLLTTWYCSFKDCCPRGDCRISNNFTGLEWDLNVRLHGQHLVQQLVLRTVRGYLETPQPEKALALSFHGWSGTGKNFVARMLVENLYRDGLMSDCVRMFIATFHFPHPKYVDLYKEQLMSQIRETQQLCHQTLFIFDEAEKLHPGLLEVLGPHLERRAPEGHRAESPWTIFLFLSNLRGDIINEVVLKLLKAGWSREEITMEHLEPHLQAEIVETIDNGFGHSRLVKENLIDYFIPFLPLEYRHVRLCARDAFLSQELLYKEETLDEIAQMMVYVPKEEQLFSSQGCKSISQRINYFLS
# UniProt Q15785: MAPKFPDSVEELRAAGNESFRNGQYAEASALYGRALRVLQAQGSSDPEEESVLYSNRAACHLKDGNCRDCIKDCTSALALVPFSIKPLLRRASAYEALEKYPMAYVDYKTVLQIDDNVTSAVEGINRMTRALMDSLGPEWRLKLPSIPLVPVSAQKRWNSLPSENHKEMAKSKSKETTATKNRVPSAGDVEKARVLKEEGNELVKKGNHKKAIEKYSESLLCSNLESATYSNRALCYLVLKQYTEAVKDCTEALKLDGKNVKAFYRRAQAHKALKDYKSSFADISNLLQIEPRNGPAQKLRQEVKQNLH
# UniProt P06753, whole entry, looked up: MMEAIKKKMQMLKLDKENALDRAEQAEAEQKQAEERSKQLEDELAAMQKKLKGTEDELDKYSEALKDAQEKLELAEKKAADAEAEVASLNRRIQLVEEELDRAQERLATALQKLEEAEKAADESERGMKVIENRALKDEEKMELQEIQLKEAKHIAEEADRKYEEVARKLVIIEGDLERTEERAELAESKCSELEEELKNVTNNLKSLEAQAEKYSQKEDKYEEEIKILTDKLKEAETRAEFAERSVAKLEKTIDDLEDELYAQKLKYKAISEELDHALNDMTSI
# UniProt Q8NFQ8: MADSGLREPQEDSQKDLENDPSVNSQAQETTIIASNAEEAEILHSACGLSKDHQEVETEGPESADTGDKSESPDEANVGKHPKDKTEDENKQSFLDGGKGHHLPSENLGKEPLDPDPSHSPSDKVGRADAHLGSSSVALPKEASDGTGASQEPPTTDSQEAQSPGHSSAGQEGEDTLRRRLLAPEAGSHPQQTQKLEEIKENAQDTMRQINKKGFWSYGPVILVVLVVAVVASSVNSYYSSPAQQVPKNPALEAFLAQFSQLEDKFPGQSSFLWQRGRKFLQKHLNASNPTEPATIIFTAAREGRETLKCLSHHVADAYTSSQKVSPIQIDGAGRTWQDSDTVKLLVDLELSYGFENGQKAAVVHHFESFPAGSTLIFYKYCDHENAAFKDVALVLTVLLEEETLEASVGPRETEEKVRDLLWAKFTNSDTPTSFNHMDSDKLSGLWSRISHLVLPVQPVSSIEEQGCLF
# UniProt Q96MH6: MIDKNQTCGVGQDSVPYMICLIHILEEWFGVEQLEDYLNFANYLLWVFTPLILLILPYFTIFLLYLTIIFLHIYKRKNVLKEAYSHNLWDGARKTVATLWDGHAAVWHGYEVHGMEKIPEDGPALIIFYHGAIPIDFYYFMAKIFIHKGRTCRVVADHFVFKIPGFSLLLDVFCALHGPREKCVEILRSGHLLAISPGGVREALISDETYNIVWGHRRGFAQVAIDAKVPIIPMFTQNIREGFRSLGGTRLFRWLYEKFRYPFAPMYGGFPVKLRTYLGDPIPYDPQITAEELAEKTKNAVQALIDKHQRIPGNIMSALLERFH
# UniProt O14656: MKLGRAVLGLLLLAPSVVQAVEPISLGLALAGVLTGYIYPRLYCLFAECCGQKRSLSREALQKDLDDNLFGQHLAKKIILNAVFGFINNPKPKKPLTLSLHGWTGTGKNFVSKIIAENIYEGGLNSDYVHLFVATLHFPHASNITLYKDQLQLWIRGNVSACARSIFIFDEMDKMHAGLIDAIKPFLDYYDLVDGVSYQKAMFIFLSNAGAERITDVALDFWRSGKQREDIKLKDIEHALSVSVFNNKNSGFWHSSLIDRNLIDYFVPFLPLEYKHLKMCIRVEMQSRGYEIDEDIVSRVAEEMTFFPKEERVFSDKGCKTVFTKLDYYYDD
# UniProt Q9NV96: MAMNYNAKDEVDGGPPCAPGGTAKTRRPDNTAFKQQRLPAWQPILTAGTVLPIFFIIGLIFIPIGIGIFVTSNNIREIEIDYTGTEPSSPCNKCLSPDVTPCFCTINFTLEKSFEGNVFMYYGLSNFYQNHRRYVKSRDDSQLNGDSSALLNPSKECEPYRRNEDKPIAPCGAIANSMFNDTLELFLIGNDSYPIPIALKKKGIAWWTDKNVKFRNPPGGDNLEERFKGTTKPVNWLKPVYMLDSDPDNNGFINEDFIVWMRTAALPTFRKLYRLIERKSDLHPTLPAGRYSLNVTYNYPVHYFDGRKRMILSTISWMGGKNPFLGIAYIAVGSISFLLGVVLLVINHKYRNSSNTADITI
# UniProt Q71RG4: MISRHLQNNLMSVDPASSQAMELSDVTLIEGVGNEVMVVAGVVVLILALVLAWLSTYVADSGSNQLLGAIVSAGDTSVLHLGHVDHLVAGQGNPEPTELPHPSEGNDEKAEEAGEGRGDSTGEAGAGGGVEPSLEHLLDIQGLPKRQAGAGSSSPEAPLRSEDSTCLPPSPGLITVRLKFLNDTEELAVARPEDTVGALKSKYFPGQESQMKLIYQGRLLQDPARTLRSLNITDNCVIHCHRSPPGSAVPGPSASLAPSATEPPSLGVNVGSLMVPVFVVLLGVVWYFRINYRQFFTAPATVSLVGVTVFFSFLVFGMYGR
# UniProt P51580: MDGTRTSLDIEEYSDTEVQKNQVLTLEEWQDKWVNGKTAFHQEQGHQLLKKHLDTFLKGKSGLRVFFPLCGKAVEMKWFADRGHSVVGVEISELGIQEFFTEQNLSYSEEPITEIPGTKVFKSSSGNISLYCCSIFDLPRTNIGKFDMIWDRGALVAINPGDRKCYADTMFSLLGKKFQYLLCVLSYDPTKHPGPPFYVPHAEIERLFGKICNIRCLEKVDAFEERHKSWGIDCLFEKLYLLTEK
# UniProt P82094: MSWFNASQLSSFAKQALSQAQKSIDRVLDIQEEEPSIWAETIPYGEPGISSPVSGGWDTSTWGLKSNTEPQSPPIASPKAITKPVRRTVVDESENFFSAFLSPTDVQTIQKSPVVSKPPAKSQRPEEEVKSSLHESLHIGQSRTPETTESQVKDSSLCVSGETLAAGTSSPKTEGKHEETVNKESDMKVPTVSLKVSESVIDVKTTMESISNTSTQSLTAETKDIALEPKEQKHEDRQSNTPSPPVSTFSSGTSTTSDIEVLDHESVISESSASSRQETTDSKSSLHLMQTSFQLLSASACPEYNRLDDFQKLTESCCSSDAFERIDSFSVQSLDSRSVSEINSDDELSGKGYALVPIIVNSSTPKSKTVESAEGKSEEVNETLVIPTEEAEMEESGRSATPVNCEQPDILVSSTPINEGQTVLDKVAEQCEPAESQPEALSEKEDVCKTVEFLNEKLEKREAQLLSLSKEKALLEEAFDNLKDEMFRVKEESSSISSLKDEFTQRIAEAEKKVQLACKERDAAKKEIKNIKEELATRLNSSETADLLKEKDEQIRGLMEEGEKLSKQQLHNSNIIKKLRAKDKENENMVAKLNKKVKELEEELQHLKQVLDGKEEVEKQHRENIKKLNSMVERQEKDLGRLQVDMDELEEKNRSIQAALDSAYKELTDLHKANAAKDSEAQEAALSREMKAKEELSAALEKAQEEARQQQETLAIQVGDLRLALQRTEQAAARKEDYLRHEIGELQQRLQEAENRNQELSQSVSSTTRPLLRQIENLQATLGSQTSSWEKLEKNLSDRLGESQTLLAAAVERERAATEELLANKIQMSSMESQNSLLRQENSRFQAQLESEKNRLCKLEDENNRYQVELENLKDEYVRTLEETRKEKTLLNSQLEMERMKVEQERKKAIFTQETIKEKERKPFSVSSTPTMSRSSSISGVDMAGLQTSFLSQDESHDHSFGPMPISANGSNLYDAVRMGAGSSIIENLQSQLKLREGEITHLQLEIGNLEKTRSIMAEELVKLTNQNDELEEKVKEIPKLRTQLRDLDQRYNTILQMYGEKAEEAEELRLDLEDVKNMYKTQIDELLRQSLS
# UniProt Q9NYL9: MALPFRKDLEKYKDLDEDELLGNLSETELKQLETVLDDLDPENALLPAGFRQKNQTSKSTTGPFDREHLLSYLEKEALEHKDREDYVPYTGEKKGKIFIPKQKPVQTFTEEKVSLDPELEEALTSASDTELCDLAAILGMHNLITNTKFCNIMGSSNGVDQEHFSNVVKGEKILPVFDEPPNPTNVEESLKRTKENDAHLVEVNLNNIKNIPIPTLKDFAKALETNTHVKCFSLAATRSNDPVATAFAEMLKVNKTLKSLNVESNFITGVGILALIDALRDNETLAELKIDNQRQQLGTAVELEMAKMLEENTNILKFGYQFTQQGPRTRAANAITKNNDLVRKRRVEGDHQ
# UniProt O96008: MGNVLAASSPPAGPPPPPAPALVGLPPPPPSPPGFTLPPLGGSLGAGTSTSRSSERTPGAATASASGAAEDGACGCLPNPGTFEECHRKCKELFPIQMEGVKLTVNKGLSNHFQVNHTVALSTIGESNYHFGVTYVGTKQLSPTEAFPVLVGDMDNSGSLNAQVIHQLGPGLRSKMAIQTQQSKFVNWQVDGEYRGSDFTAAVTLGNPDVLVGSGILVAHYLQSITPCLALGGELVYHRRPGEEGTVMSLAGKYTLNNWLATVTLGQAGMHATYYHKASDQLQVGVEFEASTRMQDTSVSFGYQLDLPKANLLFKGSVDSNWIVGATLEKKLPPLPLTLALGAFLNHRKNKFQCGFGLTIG
# UniProt P28289: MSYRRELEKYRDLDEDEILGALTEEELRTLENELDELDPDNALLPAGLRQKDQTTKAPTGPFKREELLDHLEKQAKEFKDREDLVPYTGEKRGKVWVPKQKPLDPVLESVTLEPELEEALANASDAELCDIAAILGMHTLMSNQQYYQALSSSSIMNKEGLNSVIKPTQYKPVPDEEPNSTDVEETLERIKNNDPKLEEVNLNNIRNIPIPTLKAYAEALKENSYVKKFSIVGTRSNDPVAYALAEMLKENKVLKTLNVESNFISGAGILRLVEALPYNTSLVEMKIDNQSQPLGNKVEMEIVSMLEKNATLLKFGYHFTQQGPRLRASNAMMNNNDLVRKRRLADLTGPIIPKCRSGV
# UniProt O14787: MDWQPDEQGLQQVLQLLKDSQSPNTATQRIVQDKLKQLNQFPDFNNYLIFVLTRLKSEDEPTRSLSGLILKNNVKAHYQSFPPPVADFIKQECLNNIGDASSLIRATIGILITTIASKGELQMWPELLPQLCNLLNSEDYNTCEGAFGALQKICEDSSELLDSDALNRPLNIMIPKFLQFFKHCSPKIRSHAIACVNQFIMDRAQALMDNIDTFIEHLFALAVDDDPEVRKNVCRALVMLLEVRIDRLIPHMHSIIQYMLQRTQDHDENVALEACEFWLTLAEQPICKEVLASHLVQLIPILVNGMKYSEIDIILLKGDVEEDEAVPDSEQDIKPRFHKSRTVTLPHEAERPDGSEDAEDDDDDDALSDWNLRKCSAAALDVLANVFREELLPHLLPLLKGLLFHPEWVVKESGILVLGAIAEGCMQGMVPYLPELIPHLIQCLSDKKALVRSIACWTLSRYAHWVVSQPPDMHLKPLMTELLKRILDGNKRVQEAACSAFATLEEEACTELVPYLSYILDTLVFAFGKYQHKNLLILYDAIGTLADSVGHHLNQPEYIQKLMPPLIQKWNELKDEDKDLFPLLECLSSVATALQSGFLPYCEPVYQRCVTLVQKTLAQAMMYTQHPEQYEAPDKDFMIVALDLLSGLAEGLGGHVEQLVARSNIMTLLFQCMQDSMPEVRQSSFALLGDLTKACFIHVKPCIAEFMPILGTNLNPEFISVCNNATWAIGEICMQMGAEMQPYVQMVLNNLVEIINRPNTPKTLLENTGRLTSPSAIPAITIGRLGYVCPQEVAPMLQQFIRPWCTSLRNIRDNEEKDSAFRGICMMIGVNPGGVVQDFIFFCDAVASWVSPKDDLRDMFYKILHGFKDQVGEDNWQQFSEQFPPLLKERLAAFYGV
# UniProt Q5BJF2, whole entry, looked up: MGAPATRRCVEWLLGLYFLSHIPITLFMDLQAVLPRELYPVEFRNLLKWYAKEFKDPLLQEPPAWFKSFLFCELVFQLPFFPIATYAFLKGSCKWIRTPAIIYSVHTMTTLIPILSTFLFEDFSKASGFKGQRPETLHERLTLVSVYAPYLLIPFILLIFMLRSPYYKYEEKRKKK
# The other results are listed elsewhere or left out.
# Experiments:
# Assay in all cases: log2 fold change, soluble protein after heating vs DMSO (PISA); higher = thermal stabilisation; K562 lysate, 10 uM; active = over 0.2 and 3.5 SD of the protein, either way, in both replicates (recomputed)
# [1] = compound: NCC(=O)Nc1ccc(-n2nc(C(F)(F)F)cc2-c2ccc3c(ccc4ccccc43)c2)cc1
# In short: (§1)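 A 30 min treatment with 10 μM compound was applied to crude K562 extract at 1 mg/mL protein in PBS pH 7.4 with 1 mM MgCl2. Heating for 3 min spanned 48°C-58°C, after which aliquots were pooled, adjusted to 0.5% NP-40 at 4°C and spun at 21,000xg for 90 min. TMTpro 16plex LC-MS/MS of the supernatant, with channel sums equalised, gave values recorded as log-two fold change in thermal stability against solvent controls, from duplicates.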
# vorinostat = compound: O=C(CCCCCCC(=O)Nc1ccccc1)NO [vorinostat]
# In short: as §1
# silmitasertib = compound: O=C(O)c1ccc2c(c1)nc(Nc1cccc(Cl)c1)c1ccncc12 [silmitasertib]
# In short: as §1
# [2] = compound: O=C1NC(=O)C(c2cnc3ccccn23)=C1c1cn2c3c(cc(F)cc13)CN(C(=O)N1CCCCC1)CC2
# In short: as §1
# entospletinib = compound: c1cn2cc(-c3ccc4cn[nH]c4c3)nc(Nc3ccc(N4CCOCC4)cc3)c2n1 [entospletinib]
# In short: as §1
Target,log2 fold change [1],log2 fold change (vorinostat),log2 fold change (silmitasertib),log2 fold change [2],log2 fold change (entospletinib)
TNFRSF1B (UniProt P20333),inactive: -0.02,inactive: -0.104,inactive: -0.048,inactive: 0.02,inactive: -0.049
TOP2A isoform 4 (UniProt P11388),inactive: 0.016,inactive: -0.044,inactive: 0.051,inactive: -0.015,inactive: 0.044
TOMM40L (UniProt Q969M1),inactive: -0.033,inactive: 0.061,inactive: -0.031,inactive: -0.023,inactive: -0.027
TPM1 (UniProt H7BYY1),inactive: 0.057,inactive: 0.136,inactive: -0.024,inactive: -0.049,inactive: 0.008
TOMM70 (UniProt O94826),inactive: -0.017,inactive: -0.179,inactive: 0.058,inactive: -0.017,inactive: 0.05
TOR3A (UniProt Q9H497),inactive: 0.011,inactive: 0.048,inactive: -0.002,inactive: -0.016,inactive: 0.02
TMEM199 (UniProt Q8N511),inactive: 0.021,inactive: 0.13,inactive: -0.017,inactive: -0.005,inactive: 0.008
TRA2A (UniProt Q13595),inactive: 0.009,active: 0.568,inactive: -0.151,inactive: 0.005,inactive: -0.102
TOMM34 (UniProt Q15785),inactive: 0.02,inactive: -0.179,inactive: 0.052,inactive: 0,inactive: 0.056
TPRKB (UniProt Q9Y3C4),inactive: 0.015,inactive: 0.074,inactive: -0.015,inactive: -0.008,inactive: -0.017
TNIP1 (UniProt Q15025),inactive: -0.045,inactive: 0.093,inactive: -0.045,inactive: 0.015,inactive: 0.01
TOX4 (UniProt O94842),inactive: -0.021,inactive: -0.018,inactive: -0.037,inactive: -0.025,inactive: -0.006
TPM3 (UniProt P06753),inactive: 0.004,inactive: 0.112,inactive: 0.012,inactive: -0.004,inactive: 0.008
TPCN1 isoform 3 (UniProt Q9ULQ1),inactive: 0.198,inactive: 0.069,inactive: -0.035,inactive: -0.006,inactive: 0.04
TMEM205 (UniProt Q6UW68),inactive: -0.102,inactive: 0.045,inactive: -0.004,inactive: 0.03,inactive: 0.003
TMX2 (UniProt Q9Y320),inactive: -0.008,inactive: 0.085,inactive: 0.01,inactive: -0.01,inactive: -0.012
TOR1AIP2 (UniProt Q8NFQ8),inactive: -0.013,inactive: 0.164,inactive: -0.021,inactive: -0.016,inactive: 0.002
TOR4A (UniProt Q9NXH8),inactive: 0.015,inactive: 0.012,inactive: 0.047,inactive: -0.001,inactive: 0.008
TOR1AIP1 isoform 3 (UniProt Q5JTV8),inactive: -0.01,inactive: 0.113,inactive: -0.014,inactive: -0.015,inactive: 0.017
TMEM189-UBE2V1 (UniProt I3L0A0),inactive: -0.047,inactive: 0.146,inactive: -0.053,inactive: 0.011,inactive: 0.001
TMEM68 (UniProt Q96MH6),inactive: -0.056,inactive: 0.07,inactive: -0.031,inactive: 0.024,inactive: -0.031
TP53RK (UniProt Q96S44),inactive: -0.017,inactive: 0.049,inactive: -0.19,inactive: -0.014,inactive: 0.031
TNPO3 (UniProt Q9Y5L0),inactive: 0.017,active: -0.317,inactive: 0.015,inactive: 0.009,inactive: 0.022
TMEM63B (UniProt Q5T3F8),inactive: 0.009,inactive: 0.143,inactive: 0.009,inactive: 0.001,inactive: -0.03
TMX3 (UniProt Q96JJ7),inactive: 0.025,inactive: 0.128,inactive: -0.009,inactive: -0.008,inactive: 0.027
TNNC2 (UniProt P02585),inactive: -0.039,inactive: 0.126,inactive: -0.05,inactive: -0.041,inactive: -0.076
TMEM192 (UniProt Q8IY95),inactive: 0.005,inactive: 0.123,inactive: -0.019,inactive: -0.025,inactive: 0.004

# No new results follow: entries from further up.
Target,log2 fold change [1],log2 fold change (vorinostat),log2 fold change (silmitasertib),log2 fold change [2],log2 fold change (entospletinib)
TP53RK (UniProt Q96S44),inactive: -0.017,inactive: 0.049,inactive: -0.19,inactive: -0.014,inactive: 0.031
TNPO3 (UniProt Q9Y5L0),inactive: 0.017,active: -0.317,inactive: 0.015,inactive: 0.009,inactive: 0.022

# Additional results

Target,log2 fold change [1],log2 fold change (vorinostat),log2 fold change (silmitasertib),log2 fold change [2],log2 fold change (entospletinib)
TOR1A (UniProt O14656),inactive: -0.007,inactive: 0.11,inactive: -0.019,inactive: -0.009,inactive: 0.002
TMEM30A (UniProt Q9NV96),inactive: 0.003,inactive: 0.054,inactive: -0.007,inactive: 0.014,inactive: -0.029
TMUB2 (UniProt Q71RG4),inactive: -0.054,inactive: 0.066,inactive: 0.04,inactive: 0.067,inactive: 0.101
TOR1B (UniProt O14657),inactive: 0.056,inactive: 0.042,inactive: 0.018,inactive: -0.04,inactive: -0.027
TMEM87A (UniProt Q8NBN3),inactive: 0.001,inactive: 0.074,inactive: 0.007,inactive: -0.013,inactive: 0.029
TMEM70 (UniProt Q9BUB7),inactive: -0.081,inactive: 0.122,inactive: 0.017,inactive: -0.108,inactive: 0.015
TNIP2 (UniProt Q8NFZ5),inactive: 0.214,inactive: -0.015,inactive: 0.009,inactive: 0.096,inactive: 0.068
TPMT (UniProt P51580),inactive: 0.005,inactive: -0.037,inactive: 0.034,inactive: -0.032,inactive: -0.012
TMF1 isoform 2 (UniProt P82094),inactive: 0.004,inactive: 0.094,inactive: -0.001,inactive: 0.006,inactive: -0.016
TPR (UniProt P12270),inactive: 0.02,inactive: 0.092,inactive: -0.027,inactive: -0.01,inactive: 0.008
TMOD3 (UniProt Q9NYL9),inactive: 0.004,inactive: -0.002,inactive: 0.026,inactive: 0.016,inactive: 0
TRABD (UniProt Q9H4I3),inactive: -0.036,inactive: -0.047,inactive: 0.114,inactive: -0.028,inactive: 0.02
TP53BP1 isoform 2 (UniProt Q12888),inactive: -0.024,inactive: -0.018,inactive: 0.019,inactive: -0.001,inactive: -0.021
TNKS (UniProt O95271),inactive: -0.009,inactive: -0.1,inactive: 0.06,inactive: -0.001,inactive: -0.085
TPM3 isoform 2 (UniProt P06753),inactive: -0.032,inactive: 0.048,inactive: 0.011,inactive: -0.047,inactive: -0.029
TONSL (UniProt Q96HA7),inactive: -0.001,inactive: -0.128,inactive: 0.061,inactive: 0.038,inactive: 0.004
TOMM5 (UniProt Q8N4H5),inactive: -0.039,inactive: 0.076,inactive: 0.034,inactive: 0,inactive: 0.025
TPP2 (UniProt P29144),inactive: -0.015,inactive: -0.121,inactive: 0.02,inactive: -0.011,inactive: 0.003
TOMM20 (UniProt Q15388),inactive: -0.057,inactive: 0.155,inactive: 0.002,inactive: 0.068,inactive: -0.029
TMEM230 isoform 2 (UniProt Q96A57),inactive: 0.066,inactive: -0.028,inactive: -0.021,inactive: -0.03,inactive: 0.015
TOMM40 (UniProt O96008),inactive: 0.033,inactive: 0.1,inactive: -0.043,inactive: -0.006,inactive: 0.015
TMOD1 (UniProt P28289),inactive: 0.005,active: -0.312,inactive: 0.02,inactive: -0.005,inactive: 0.01
TPT1 (UniProt P13693),inactive: 0.034,inactive: 0.124,inactive: -0.02,inactive: 0.002,inactive: -0.011
TNPO2 (UniProt O14787),inactive: 0.022,inactive: -0.198,inactive: 0.007,inactive: -0.003,inactive: 0.004
TMEM97 (UniProt Q5BJF2),inactive: -0.016,inactive: 0.152,inactive: -0.039,inactive: 0.071,inactive: 0.004
TMEM38B (UniProt Q9NVV0),inactive: -0.011,inactive: 0.116,inactive: 0.014,inactive: 0.013,inactive: -0.055
